Test results reported in patent publication US20260069606A1, “Oxidative Stress and Diabetes Treatment with Cobinamide” (The Regents of the University of California, priority 2022, published 2026).
For part of these data: For at least one compound, name, drawing or mass did not settle the structure. Some entries share one result that the patent states for a list of compounds.

Key:
[1] = Reaction with hydrogen peroxide, H2O2-specific electrode; assay type: biochemical; conditions: third order; H2O2-specific sensor; new data of this study
Description: FIGS. 2A-2F. Cobinamide Functions as a Catalase Mimetic and Reacts with Peroxynitrite. […]. Hydrogen peroxide (final concentration 50 μM) was added to solutions containing increasing concentrations of Chi(III) (FIG. 2A) or Chi(II) (FIG. 2C), and the H2O2 concentration was measured over time using a H2O2-specific electrode. The log of the velocity in the presence of Chi(III) (FIG. 2B) or Chi(II) (v) (FIG. 2D) over the velocity in their absence (Vo) is plotted against the log of their concentrations at 20 min over their concentrations at zero time. These plots yield a reaction order with respect to Chi(III) and Cbi(II) of 0.7. The experiments were repeated three times with similar results. Dotted lines show 95% confidence intervals. FIG. 2E. […] Varying concentrations of Chi(II) from 1 to 10 μM were mixed with 10 μM peroxynitrite in a stopped-flow instrument, and absorption at 315 nm was monitored for 0.5 sec. […]
Table I. Reaction Rates of Cobinamide (Cbi), Cobalamin, Imisopasem, and MnTBAP with Reactive Oxygen and Nitrogen Species. […] For the new data presented in this study, rate constants were measured for O2·^− using a hypoxanthine-xanthine oxidase-cytochrome c system, for H2O2 using a H2O2-specific sensor (World Precision Instruments), and for ONOO^− using a stopped-flow instrument. […]

[2] = cited from earlier work
[3] = second order; literature values; cited from earlier work

C/C1=C2/[N-][C@H]([C@H](CC(N)=O)[C@@]2(C)CCC(=O)NC[C@@H](C)O)[C@]2(C)N=C(/C(C)=C3N=C(/C=C4N=C1[C@@H](CCC(N)=O)C\4(C)C)[C@@H](CCC(N)=O)[C@]\3(C)CC(N)=O)[C@@H](CCC(N)=O)[C@]2(C)CC(N)=O.[Co] [Cbi(II)]
Apparent rate constant, reaction with hydrogen peroxide (H2O2) [1]: 3.68×104 M^−2 s^−1

C/C1=C2/[N-][C@H]([C@H](CC(N)=O)[C@@]2(C)CCC(=O)NC[C@@H](C)O)[C@]2(C)N=C(/C(C)=C3N=C(/C=C4N=C1[C@@H](CCC(N)=O)C\4(C)C)[C@@H](CCC(N)=O)[C@]\3(C)CC(N)=O)[C@@H](CCC(N)=O)[C@]2(C)CC(N)=O.[Co+3] [cobinamide, aquohydroxo-cobinamide]
Standard potential for reduction of the cobalt from +3 to +2 oxidation state / reduction potential [2]: +270 mV

B1: mitochondrial Mn SOD2: Mn superoxide dismutase, published rate constant shown for reference (protein, UniProt P04179 25-222, looked up)
Superoxide dismutase [Mn], …: KHSLPDLPYDYGALEPHINAQIMQLHHSKHHAAYVNNLNVTEEKYQEALAKGDVTAQIALQPALKFNGGGHINHSIFWTNLSPNGGGEPKGELLEAIKRDFGSFDKFKEKLTAASVGVQGSGWGWLGFNKERGHLQIAACPNQDPLQGTTGLIPLLGIDVWEHAYYLQYKNVRPDYLKAIWNVINWENVTERYMACKK
Rate constant, reaction with superoxide (O2·^−), published [3]: 7-10 × 10^8 M^−1 s^−1
